According to PubChem BioAssay AID296 (DTP/NCI, 2004):
The list shows only some results of the screen, not a fair sample: it gathers tests that were run many times, whatever their T/C, doses with no T/C, and many T/C values between a quarter and a half above the control. Further doses and runs are listed elsewhere. T/C is the treated group as % of the vehicle group. Schedules are NCI's codes, read here as Q, the interval in days (D) or hours (H), X, the number of doses. Some T/C values are followed by the survivors on the day toxicity was checked, most often the fifth; without a count, all were alive then. Some entries were tested several times; their values stand side by side, smallest first. Some entries give survivors of the animals treated and no T/C: the source holds a T/C of zero for them, seemingly a mark for toxic or unscored doses. Counts of survivors are from the toxicity check (mostly the fifth day) where no day follows; animals may have died later. Some structures stand for samples that the source files as different forms (salt, stereo form or complex); doses refer to the form tested.

Tested on: MX-1 breast xenograft, nude mice, tumor weight T/C
Assay: NCI In Vivo Anticancer Drug Screen. Data for tumor model Human Mammary Carcinoma MX-1 Xenograft (intrarenal inoculation) in NU/NU Swiss (nude) mice
Conditions: T/C endpoint: mean tumor weight change, higher T/C = larger tumour; for T/C: evaluated on day 11
How it was run: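 Antitumour effect measured in vivo against vehicle controls, expressed as T/C.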

[1] = dose: 50.0 mg/kg/injection, schedule: Q01DX010 (sc), vehicle: saline
[2] = dose: 200.0 mg/kg/injection, schedule: Q01DX010 (sc), vehicle: saline
[3] = dose: 16.0 mg/kg/injection, schedule: Q01DX010 (sc), vehicle: saline
[4] = dose: 400.0 mg/kg/injection, schedule: Q01DX010 (sc), vehicle: saline
[5] = dose: 800.0 mg/kg/injection, schedule: Q01DX010 (sc), vehicle: saline

Compound: COc1ccc2c(c1[N+](=O)[O-])CC[C@@H]1[C@@H]2CC[C@]2(C)C(=O)CC[C@@H]12
- T/C (dose: 600.0 mg/kg/injection, schedule: Q04DX003 (ip), vehicle: saline with Tween-80): 148 % of control

Compound: Cc1c2ccncc2c(C)c2c1[nH]c1ccccc12
- T/C [1]: 143 % of control [2 of 2 alive on day 11]
- survivor count [1]: 1 of 3 on day 11
- survivor count (dose: 100.0 mg/kg/injection, schedule: Q01DX010 (sc), vehicle: saline): 0 of 3 on day 11 and 1 of 3 on day 11
- survivor count (dose: 100.0 mg/kg/injection, schedule: Q01DX010 (sc), vehicle: suspension in saline): 0 of 3 on day 11
- survivor count [2]: 0 of 3 on day 11
- survivor count (dose: 400.0 mg/kg/injection, schedule: Q01DX010 (sc), vehicle: suspension in saline): 0 of 3 on day 11

Compound: COc1cc([C@@H]2c3cc4c(c(O)c3C[C@H]3COC(=O)[C@@H]32)OCO4)cc(OC)c1OC
- survivor count (dose: 8.0 mg/kg/injection, schedule: Q01DX010 (sc), vehicle: saline): 1 of 3 on day 11
- survivor count [3]: 0 of 3 on day 11

Compound: COP12(OCCO1)SC(C(F)(F)F)=C(C(F)(F)F)S2
- survivor count (dose: 500.0 mg/kg/injection, schedule: Q04DX003 (sc), vehicle: saline with Tween-80): 3 of 6 on day 11
- survivor count (dose: 1000.0 mg/kg/injection, schedule: Q04DX003 (sc), vehicle: saline with Tween-80): 2 of 6 on day 11

Compound: CCCCCCCC(=O)OCC(=O)[C@]1(O)Cc2c(O)c3c(c(O)c2[C@@H](OC2CC(N)C(O)C(C)O2)C1)C(=O)c1c(OC)cccc1C3=O (stereo partly specified)
- survivor count (dose: 16.0 mg/kg/injection, schedule: Q01DX010 (sc), vehicle: suspension in saline): 0 of 3 on day 11

Compound: Cc1cn(C2CC3[O][Sn]([c]4ccccc4)([c]4ccccc4)[O]CC3O2)c(=O)[nH]c1=O (stereo unspecified)
- T/C [1]: 143 % of control

Compound: COc1cccc2c1C(=O)c1c(O)c3c(c(O)c1C2=O)C[C@@](O)(C(=O)CO)C[C@@H]3OC1CC(N(C)C)C(O)C(C)O1 (stereo partly specified)
- survivor count (dose: 12.0 mg/kg/injection, schedule: Q01DX010 (sc), vehicle: water): 1 of 3 on day 11
- survivor count (dose: 24.0 mg/kg/injection, schedule: Q01DX010 (sc), vehicle: water): 0 of 3 on day 11

Compound: COc1cc2cc(c1Cl)N(C)C(=O)CC(OC(=O)CC(C)C)C1(C)OC1C(C)C1CC(O)(NC(=O)O1)C(OC)/C=C/C=C(C)C2 (stereo unspecified)
- survivor count (dose: 25.0 micrograms/kg/injection, schedule: Q01DX010 (sc), vehicle: saline + alcohol): 3 of 6 on day 11
- survivor count (dose: 100.0 micrograms/kg/injection, schedule: Q01DX010 (sc), vehicle: saline + alcohol): 3 of 5 on day 11
- survivor count (dose: 200.0 micrograms/kg/injection, schedule: Q01DX010 (sc), vehicle: saline + alcohol): 0 of 6 on day 11 and 1 of 3 on day 11

Compound: COC(=O)C12OCC34C(CC5C(C)=CC(=O)C(O)C5(C)C3C(O)C1O)OC(=O)C(OC(=O)CC(C)C)C24 (stereo unspecified)
- survivor count (dose: 6.0 mg/kg/injection, schedule: Q04DX003 (sc), vehicle: saline + alcohol): 1 of 6 on day 11
- survivor count (dose: 12.0 mg/kg/injection, schedule: Q04DX003 (sc), vehicle: saline + alcohol): 0 of 6 on day 11

Compound: O=[N+]([O-])c1ccc(-n2[nH]nnc2=S)cc1
- survivor count (dose: 1600.0 mg/kg/injection, schedule: Q04DX003 (sc), vehicle: Klucel (hydroxypropylcellulose) (HPC)): 1 of 6 on day 11

Compound: Cn1c2nc(=O)n(-c3ccccc3)c(=O)c-2nc2c1CCCC2
- survivor count (dose: 300.0 mg/kg/injection, schedule: Q04DX003 (sc), vehicle: saline with Tween-80): 3 of 6 on day 11

Compound: O=C(CCBr)N1CCN(C(=O)CCBr)CC1
- survivor count (dose: 50.0 mg/kg/injection, schedule: Q01DX010 (sc), vehicle: Klucel (hydroxypropylcellulose) (HPC)): 0 of 3 on day 11
- survivor count (dose: 72.0 mg/kg/injection, schedule: Q01DX010 (sc), vehicle: Klucel (hydroxypropylcellulose) (HPC)): 3 of 6 on day 11
- survivor count (dose: 100.0 mg/kg/injection, schedule: Q01DX010 (sc), vehicle: Klucel (hydroxypropylcellulose) (HPC)): 0 of 3 on day 11

Compound: Nc1ncnc2c1ncn2C1OC(COP(=O)(O)O)C(O)C1O (stereo unspecified)
- T/C (dose: 333.33 mg/kg/injection, schedule: Q04DX003 (ip), vehicle: saline): 131 % of control
- T/C [4]: 56, 61 [2 of 2 alive on day 11], 72, 78, 83 % of control
- T/C [5]: 7, 23, 24, 47 [2 of 2 alive on day 11], 66 % of control
- survivor count (dose: 1600.0 mg/kg/injection, schedule: Q01DX010 (sc), vehicle: saline): 1 of 3 on day 11 and 2 of 6 on day 11
- survivor count (dose: 3200.0 mg/kg/injection, schedule: Q01DX010 (sc), vehicle: saline): 0 of 3 on day 11 and 0 of 6 on day 11

Compound: O=C(O)CC(NC(=O)CP(=O)(O)O)C(=O)O (stereo unspecified)
- T/C (dose: 25.0 mg/kg/injection, schedule: Q01DX010 (sc), vehicle: saline): 133 % of control [2 of 2 alive on day 11]
- survivor count [2]: 1 of 3 on day 11
- survivor count [4]: 0 of 3 on day 11
- survivor count [5]: 0 of 3 on day 11

Compound: N=c1ccn2c(n1)OC1C(O)C(CO)OC12 (stereo unspecified)
- survivor count (dose: 300.0 mg/kg/injection, schedule: Q04DX003 (sc), vehicle: suspension in saline): 3 of 5 on day 11
- survivor count (dose: 3200.0 mg/kg/injection, schedule: Q04DX003 (sc), vehicle: saline): 1 of 6 on day 11

Compound: O=S(=O)(SC(S(=O)(=O)c1ccccc1)S(=O)(=O)c1ccccc1)c1ccccc1
- T/C (dose: 1200.0 mg/kg/injection, schedule: Q04DX003 (sc), vehicle: Klucel (hydroxypropylcellulose) (HPC)): 128 % of control

Compound: O=C(O)C1CSCN1 (stereo unspecified)
- T/C (dose: 100.0 mg/kg/injection, schedule: Q01DX010 (sc), vehicle: water): 142 % of control
- survivor count (dose: 200.0 mg/kg/injection, schedule: Q01DX010 (sc), vehicle: water): 1 of 3 on day 11
- survivor count (dose: 400.0 mg/kg/injection, schedule: Q01DX010 (sc), vehicle: water): 0 of 3 on day 11

Compound: CCC1(O)CC2CN(CCc3c([nH]c4ccccc34)C(C(=O)OC)(c3cc4c(cc3OC)N(C)C3C(O)(C(N)=O)C(O)C5(CC)C=CCN6CCC43C65)C2)C1 (stereo unspecified) (tested in a mixture with another compound)
- survivor count (dose: 6.0 mg/kg/injection, schedule: Q04DX003 (sc), vehicle: water): 2 of 6 on day 11
- survivor count (dose: 12.0 mg/kg/injection, schedule: Q04DX003 (sc), vehicle: water): 0 of 6 on day 11 and 1 of 6 on day 11
- survivor count (dose: 24.0 mg/kg/injection, schedule: Q04DX003 (sc), vehicle: water): 0 of 6 on day 11

Compound: Nc1nc([Se])c2ncn(C3OC(CO)C(O)C3O)c2n1 (stereo unspecified)
- T/C (dose: 2.0 mg/kg/injection, schedule: Q01DX010 (ip), vehicle: saline): 135 % of control
- T/C (dose: 2.0 mg/kg/injection, schedule: Q01DX010 (sc), vehicle: saline): 137 % of control
- T/C (dose: 4.0 mg/kg/injection, schedule: Q01DX010 (ip), vehicle: saline): 140 % of control
- T/C (dose: 6.66 mg/kg/injection, schedule: Q04DX003 (sc), vehicle: saline): 142 % of control
- survivor count (dose: 16.0 mg/kg/injection, schedule: Q01DX010 (ip), vehicle: saline): 0 of 3 on day 11
- survivor count [3]: 0 of 3 on day 11 and 1 of 3 on day 11
- survivor count (dose: 32.0 mg/kg/injection, schedule: Q01DX010 (sc), vehicle: saline): 0 of 3 on day 11
- survivor count (dose: 53.3 mg/kg/injection, schedule: Q04DX003 (sc), vehicle: saline): 0 of 2 on day 11
- survivor count (dose: 64.0 mg/kg/injection, schedule: Q01DX010 (sc), vehicle: saline): 0 of 3 on day 11

Compound: CCCCCn1c(C)cc(/C=C\c2ccc3cc(C)ccc3[n+]2C)c1C
- survivor count (dose: 0.75 mg/kg/injection, schedule: Q04DX003 (sc), vehicle: Klucel (hydroxypropylcellulose) (HPC)): 3 of 6 on day 11
- survivor count (dose: 1.5 mg/kg/injection, schedule: Q04DX003 (sc), vehicle: Klucel (hydroxypropylcellulose) (HPC)): 0 of 6 on day 11
- survivor count (dose: 3.0 mg/kg/injection, schedule: Q04DX003 (sc), vehicle: Klucel (hydroxypropylcellulose) (HPC)): 0 of 6 on day 11
- survivor count (dose: 6.0 mg/kg/injection, schedule: Q04DX003 (sc), vehicle: Klucel (hydroxypropylcellulose) (HPC)): 0 of 6 on day 11
